Consider one substance from PMC10520482.

No constants are given. Whether binding was seen depends on the method and setting. Binding seen in cells or lysates may run through a third protein. For part of these data: A result given as binding can be weak or reduced; the word gives no strength. Where a sequence is shown, tags or fusion partners need not be part of it.

Experiment in all cases: pull-down; GST or GST fusion proteins (1 mg) crosslinked to Sepharose beads, incubated with lysate of HEK293T cells transfected with MYC-CENTLEIN in ELB overnight at 4°C; four washes with ELB; western blot; only the target purified
Test [1] has as its target T1, GST-RABIN8 1‒245 (UniProt Q96QF0).
T1 sequence: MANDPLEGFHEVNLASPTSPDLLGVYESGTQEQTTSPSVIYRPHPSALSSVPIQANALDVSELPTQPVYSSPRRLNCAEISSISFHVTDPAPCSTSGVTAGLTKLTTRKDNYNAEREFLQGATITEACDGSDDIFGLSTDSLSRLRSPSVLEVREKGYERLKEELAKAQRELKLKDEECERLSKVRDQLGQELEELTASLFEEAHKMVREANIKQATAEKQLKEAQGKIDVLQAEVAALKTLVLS

Test [2] has as its target T2, GST-RABIN8 (UniProt Q96QF0).
T2 sequence: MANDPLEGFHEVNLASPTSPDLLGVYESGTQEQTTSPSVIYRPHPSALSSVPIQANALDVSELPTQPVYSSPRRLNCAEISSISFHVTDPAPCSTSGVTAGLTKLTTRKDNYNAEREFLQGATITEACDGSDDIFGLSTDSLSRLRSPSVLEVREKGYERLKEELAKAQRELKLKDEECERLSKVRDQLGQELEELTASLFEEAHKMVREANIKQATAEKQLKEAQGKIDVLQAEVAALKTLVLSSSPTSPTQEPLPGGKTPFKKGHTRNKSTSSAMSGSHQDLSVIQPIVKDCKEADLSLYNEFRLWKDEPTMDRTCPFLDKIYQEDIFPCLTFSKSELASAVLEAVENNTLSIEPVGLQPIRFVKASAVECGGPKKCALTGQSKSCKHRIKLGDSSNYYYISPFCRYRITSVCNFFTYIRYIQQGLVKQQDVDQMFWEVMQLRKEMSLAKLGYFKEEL

In test [3] the target is T3, GST-RABIN8 1‒260 (UniProt Q96QF0).
T3 sequence: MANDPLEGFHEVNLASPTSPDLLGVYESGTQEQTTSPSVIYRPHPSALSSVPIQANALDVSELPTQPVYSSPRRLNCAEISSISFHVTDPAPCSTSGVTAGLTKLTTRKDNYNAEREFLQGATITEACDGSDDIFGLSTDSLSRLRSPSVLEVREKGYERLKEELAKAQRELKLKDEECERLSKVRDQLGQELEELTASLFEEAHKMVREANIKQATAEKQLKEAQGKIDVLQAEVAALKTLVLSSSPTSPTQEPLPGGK

The target of test [4] is T4, GST-RABIN8 1‒230 (UniProt Q96QF0).
T4 sequence: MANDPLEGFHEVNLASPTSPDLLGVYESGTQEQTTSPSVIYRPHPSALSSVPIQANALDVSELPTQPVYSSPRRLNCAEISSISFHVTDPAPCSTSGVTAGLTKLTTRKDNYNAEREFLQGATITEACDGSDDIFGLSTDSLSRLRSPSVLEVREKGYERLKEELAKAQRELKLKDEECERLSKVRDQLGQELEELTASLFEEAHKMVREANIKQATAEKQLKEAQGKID

For test [5], the target named is T5, GST-RABIN8 261‒460 (UniProt Q96QF0).
T5 sequence: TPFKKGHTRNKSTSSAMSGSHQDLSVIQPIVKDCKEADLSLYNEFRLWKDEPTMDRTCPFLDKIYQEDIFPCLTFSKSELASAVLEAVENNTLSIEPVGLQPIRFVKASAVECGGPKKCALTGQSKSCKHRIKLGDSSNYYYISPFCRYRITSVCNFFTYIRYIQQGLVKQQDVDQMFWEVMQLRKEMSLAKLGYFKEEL

The target of test [6] is T6, GST-RABIN8 1‒200 (UniProt Q96QF0).
T6 sequence: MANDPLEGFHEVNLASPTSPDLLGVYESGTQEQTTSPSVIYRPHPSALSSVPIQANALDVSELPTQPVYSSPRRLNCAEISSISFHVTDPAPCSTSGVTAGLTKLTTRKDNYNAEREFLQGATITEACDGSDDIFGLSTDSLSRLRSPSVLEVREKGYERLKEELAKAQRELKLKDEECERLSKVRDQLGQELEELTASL

MYC-CENTLEIN (from UniProt Q9NXG0-2): the binding result is “binds” in test [1]; “binds” in test [2]; “binds” in test [3]; “binds” in test [4]; “no binding” in test [5]; “no binding” in test [6].
